# Results of single-concentration screens

Measurements from “University of Dundee, Small-Polar-MMV Screening Library” (2021), ChEMBL document CHEMBL3988442.

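Phenotypic screen: M. tuberculosis growth, glucose 7H9 medium, 3 days; the read-out is not stated. Compounds at 50 µM. Higher reads as more growth inhibition (inferred: compounds with an IC50 in retests scored well above the rest). Size under these conditions: about 69,000 compounds, about 760 of them at 50% or above in at least one test.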

The filed quantity is “Percent Effect” (%).
The record does not define 0% and 100%; most values in the screen are far below 50% and negative numbers occur (in some assays of this library far below -100).
This is an unselected part of the compounds tested.
Two or more numbers in one place are separate tests of the same structure; such repeats can differ widely.

[H][C@@]12CN(CCOC)C[C@]1([H])[C@@H](OC)CCN2C(=O)c1cccc(OC)c1 read -4.97%. For O=C(c1scc2c1OCCO2)N1CCOC(Cc2ccc(F)cc2)C1 (centres undefined) the result was 26.46%. CCOc1ccccc1C(=O)NCCc1ccoc1 gave -18.96%. O=C(Cc1ccon1)N1CCN(c2ccncc2Cl)CC1 gave 10.57%. For O=C(O)C(F)(F)F.[H][C@@]12CCCO[C@]1([H])[C@@H](OCC1CC1)CN2Cc1c(C)noc1C the result was -5.882%. For [H][C@@]12CC[C@H](Oc3ccccc3)[C@]1([H])CN(C(=O)Cn1ccnc1)C2 the result was 21.64%.

For Cc1ccc(CN2CCC3(CC2)C(c2ccccc2)CC(=O)N3C)o1.O=C(O)C(F)(F)F (centres undefined) the result was -20.57%. With CC(C)CCN1CC2(CCN(C3CCCOC3)CC2)OC1=O (centres undefined) the screen gave 0.07771%. With CC(C(=O)O)N1CC2(CCC1=O)CCN(CCSc1ccccc1)CC2 (centres undefined) the screen gave -16.36%. Result for CCc1cnccc1C(=O)NC1CCN(C(=O)C2CCCCC2)CC1 was -2.01%. CN(CC(=O)N1CC(C)(C)[C@](O)(C2CC2)C1)Cc1cccnc1 read -4.069%. Result for Cc1nc(C)n(CC2CCCCN2CC(=O)Nc2cc(C)on2)n1 (centres undefined) was -1.96%.

Result for O=C(N1CCOCC1)N1CCC2(CC1)CN(c1ccccn1)CCO2 was -3%. For CCc1nc(NCC2CCCN(C(=O)C3CC3)C2)c2cnn(C)c2n1 (centres undefined) the result was 14.22%. Result for Cc1cc(CN2CCC(CNC(=O)c3ccc(O)c(Cl)c3)C2)[nH]n1 (centres undefined) was -1.485%. Cc1nc(C)c(C(=O)N2CCC(O)(Cn3ccc4ccncc43)CC2)s1 read 10.49%. Result for CN1CCOC(C)(C(=O)Nc2nccs2)C1 (centres undefined) was -48.84%. [H][C@@]12CCN(C(=O)NCC)C[C@]1([H])CCN(C1CCCCC1)C(=O)C2 read 1.708% & 4.133%.

With Cc1ccc(C(=O)Nc2cc(C(C)C)n[nH]2)cn1 the screen gave 12.12%. With CC(C(=O)N1CCN(c2ccc(F)cc2)CC1)n1cc(Br)cn1 (centres undefined) the screen gave 13.09%. Result for CC(C)(C)C(=O)NCC(=O)NCC1CCCS1 (centres undefined) was -7.799% & 7.125%. Result for CS(=O)(=O)NC1CCN(C(=O)NCCc2ccccn2)CC1 was -51.68%. CCOC(C)c1noc(CN(C)C(=O)c2ccncc2)n1 (centres undefined) read -3.867%. Cn1cc(S(=O)(=O)NC(CO)Cc2c[nH]c3ccccc23)cn1 (centres undefined) read -1.658%.

With CSc1ccc(CNC(=O)Cc2c(C)n[nH]c2C)cc1 the screen gave -15.26%. CCCS(=O)(=O)N1CCCC1c1cccc(N(C)C)c1 (centres undefined) gave 12.33%. N#Cc1cccnc1N1CCCN(C(=O)CCn2cccn2)CC1 gave 37.09%. For CCNc1ncc2c(n1)CN(c1ccc(CC)cc1)C2=O the result was 133.1%. CCOC(=O)N1CCN(c2nc(NCCCO)c3ccccc3n2)CC1.Cl read 26.17%. CC(C)CN1CCN(S(=O)(=O)c2cn(C)cn2)Cc2cccnc21.O=C(O)C(F)(F)F.O=C(O)C(F)(F)F read -0.9031% & 7.158%.

For CN(CCn1ccnc1-c1ccccn1)S(C)(=O)=O the result was -44.04% & -8.118%. Cc1ccc(-c2nnc(CN3CCCC(Cn4cncn4)C3)o2)cc1 (centres undefined) gave 6.408%. For O=C(c1cc2c(s1)CCC2)N1CCCC1Cn1cccn1 (centres undefined) the result was 26.71%. [H][C@@]12CS(=O)(=O)C[C@]1([H])N(Cc1ccc(C)cc1)CCN2Cc1ccncc1 read -18.73%. Cc1cnc(CN2CCCC(c3cc(C)[nH]n3)C2)cn1 (centres undefined) gave 2.853%. With O=C(Cn1ccc(=O)[nH]c1=O)NCc1cccnc1OCC(F)(F)F the screen gave 0.8105% & -19.15%.

Result for Cc1nc(CNC(=O)Nc2cc(C(F)(F)F)c[nH]c2=O)cs1 was -4.403%. With O=C(CN1CCOc2ccc(Cl)cc21)NCc1ncc[nH]1 the screen gave 2.288%. With [H][C@]12CC[C@@]3(N=C(c4ccccc4)NC3=O)[C@@]1([H])CN(Cc1ccoc1)C2 the screen gave -1.893% & -31.83%. CNc1nc(C(=O)N2CCC3(CCCN(CC4CC4)C3=O)C2)cs1 (centres undefined) gave -1.115%. For COCCC1(CNC(=O)NCC2CCCS2)CCCC1 (centres undefined) the result was 16.29% & -30.89%. O=c1[nH]c2ncccc2n1C1CCCCC1 read 10.21% & 10.46%.

With CN(C)c1nc(N2CCCC2)nc2c1CCN(C(=O)c1ccco1)CC2.O=C(O)C(F)(F)F.O=C(O)C(F)(F)F the screen gave -37.6% & 2.502%. CS(=O)(=O)N1C[C@@H](O)[C@H](N2CCN(c3ccccc3)CC2)C1 gave -22.36%. With CC(CN1CCCC1=O)NC(=O)Nc1cccnc1-n1cccn1 (centres undefined) the screen gave -9.81% & -4.1%. Result for CCOCc1ccc(NCc2cnc(N3CCN(C)CC3)nc2)cc1 was 22.43%. Cc1cnn(CC(C)NCc2nc(-c3ccoc3)no2)c1 (centres undefined) gave -29.1%. With CNS(=O)(=O)c1cccc(C(C)NCc2cccc(O)c2)c1 (centres undefined) the screen gave -4.397% & -19.08%.

With Cc1csc(N2CCN(C(=O)C3(C#N)CCCC3)CC2)n1 the screen gave 29.16%. For CC(=O)N1CCC2(CC1)COCCN2Cc1ccc(F)cc1.O=C(O)C(F)(F)F the result was -13.01%. Result for COc1ccccc1CNC(=O)COc1c(C)n(C)ccc1=O was -17.55%. Cc1cc(C)nc(NC2CC(=O)N(C(C)(C)C)C2)n1 (centres undefined) gave 20.27% & 26.17%. With CCn1cnnc1C1CCN(C(=O)c2ccnc(N(C)C)c2)CC1 the screen gave 5.178%. With CNc1ccc(CC2CCCN(C(=O)c3cnc(C)nc3)C2)nn1 (centres undefined) the screen gave -12.24%.

Cc1nc(C)n(CC2CN(Cc3noc(C4CC4)n3)CCO2)n1 (centres undefined) gave -2.813%. With COCc1nc(N(C)C)ncc1C(=O)Nc1cc(C)cc(C)c1 the screen gave 54.52%. CNC(=O)c1sc2ccccc2c1C1CCN(c2cc(C)nc(C)n2)C1 (centres undefined) gave 8.054%.

3 of the entries, repeated:

compound	percent effect
CC(C)CN1CCN(S(=O)(=O)c2cn(C)cn2)Cc2cccnc21.O=C(O)C(F)(F)F.O=C(O)C(F)(F)F	-0.9031 & 7.158
CS(=O)(=O)N1C[C@@H](O)[C@H](N2CCN(c3ccccc3)CC2)C1	-22.36
CCc1cnccc1C(=O)NC1CCN(C(=O)C2CCCCC2)CC1	-2.01